Results are given in words; binding and its absence hold for the method and conditions named. Some entries that bind do so weakly or less than the wild type.

Binding data for one molecule are collected here from US20250346660A1 (PARAGON THERAPEUTICS, published 2025).

For this test, the target named is T1, Recombinant Human IL-23 (human, UniProt Q9NPF7 20-189; P29460 23-328).
T1 sequence (looked up) 1: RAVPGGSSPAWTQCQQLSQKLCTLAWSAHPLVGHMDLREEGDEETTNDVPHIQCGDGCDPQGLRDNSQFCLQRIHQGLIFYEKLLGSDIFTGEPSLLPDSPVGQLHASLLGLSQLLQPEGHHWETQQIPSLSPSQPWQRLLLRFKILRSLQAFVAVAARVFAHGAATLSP
T1 sequence (looked up) 2: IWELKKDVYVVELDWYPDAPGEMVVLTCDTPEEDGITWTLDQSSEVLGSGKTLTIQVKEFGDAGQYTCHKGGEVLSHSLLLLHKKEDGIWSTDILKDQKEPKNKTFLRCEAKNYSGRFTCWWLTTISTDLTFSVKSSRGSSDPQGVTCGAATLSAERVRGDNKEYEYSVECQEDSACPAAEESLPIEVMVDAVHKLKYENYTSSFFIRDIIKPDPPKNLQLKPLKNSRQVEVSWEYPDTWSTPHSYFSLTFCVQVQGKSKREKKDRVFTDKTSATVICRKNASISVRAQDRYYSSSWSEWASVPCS
Put plainly: summary of Examples 3-6 (SPR).

B1: IL-23 antibody clone 107 (antibody, human IgG1, kappa, L234A L235A, V domains shown)
VH: QVQLVQSGAEVKKPGSSVKVSCKASGYTFTAQTIHWMRQAPGQGLEWIGYIYPRDDTPKYNPNFKGKVTITADKSTSTAYMELSSLRSEDTAVYYCAIPDRSGYAWFDYWGQGTLVTVSS
VL: DIQMTQSPSSLSASVGDRVTITCKASRDVAIAVAWYQQKPGKVPKLLIYWASTRHTGVPSRFSGSGSRTDFTLTISSLQPEDVADYFCHQYSSYPFTFGSGTKLEIKR
As for B1, the binding result is “binds”.
